Taken from: PubChem BioAssay AID1224830 (NIAID, 2016)
Aim: 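Host factors that control LPS-induced TNF expression in human macrophages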 (primary screen). Cell system: human THP-1 monocytic leukaemia cells, TNF dual-luciferase reporter clone, PMA-differentiated to macrophage-like cells. Reagents: siRNA pool against human genes, 50 nM. Timing: LPS for 4 h, given about 3 days after siRNA transfection. Conditions: bacterial LPS (TLR4 ligand), 10 ng/ml. Measured: 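Ratio of firefly to renilla light, scaled to the plate median and expressed as a robust z-score per replicate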. Reading the numbers: TNF reporter robust z-score: higher = stronger TNF reporter response to LPS. Call rule: 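Each well counts as active if its z-score is over 2.8 or under -1.5; controls are left without a call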.
The whole screen tested about 18,000 reagents; shown is a part drawn at random. In the full data, about 2,900 (16%) got an active call. 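Calls are made per well; low scores hint the gene aids the LPS response, high scores that it dampens it.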 Entries without a mark were called inactive. Repeated entries: four replicate wells of each siRNA pool.

Gene	PubChem SID	TNF reporter robust z-score
CEMIP	SID315458337	1.35
CEMIP	SID315458337	-0.1
CEMIP	SID315458337	0.09
CEMIP	SID315458337	0.64
HOXC13	SID315449293	-0.88
HOXC13	SID315449293	-0.89
HOXC13	SID315449293	-0.84
HOXC13	SID315449293	-0.93
ZNF668	SID315459441	16.2 (active)
ZNF668	SID315459441	3.93 (active)
ZNF668	SID315459441	-0.34
ZNF668	SID315459441	1.22
ABCA5	SID315455256	-1.51 (active)
ABCA5	SID315455256	-0.24
ABCA5	SID315455256	0.51
ABCA5	SID315455256	-0.31
PIGP	SID315456566	-1.29
PIGP	SID315456566	-1.08
PIGP	SID315456566	-0.95
PIGP	SID315456566	-0.45
MERTK	SID315454107	1.21
MERTK	SID315454107	0.14
MERTK	SID315454107	-0.27
MERTK	SID315454107	0.5
CCDC47	SID315458222	1.02
CCDC47	SID315458222	0.57
CCDC47	SID315458222	0.96
CCDC47	SID315458222	1.6
TRMT112	SID315456746	0.73
TRMT112	SID315456746	1.27
TRMT112	SID315456746	1.29
TRMT112	SID315456746	0.97
SASH3	SID315457004	-1.4
SASH3	SID315457004	-1.28
SASH3	SID315457004	-1.21
PARVA	SID315457817	2.83 (active)
PARVA	SID315457817	-1.09
PARVA	SID315457817	0.19
PARVA	SID315457817	0.55
ARRDC5	SID315465104	0.43
ARRDC5	SID315465104	0.29
ARRDC5	SID315465104	-1.27
ARRDC5	SID315465104	0.34
H2AC12	SID315460644	0.45
H2AC12	SID315460644	0.66
H2AC12	SID315460644	-0.41
H2AC12	SID315460644	0.39

Quoted from the entries so far, 4 entries:
Gene	PubChem SID	TNF reporter robust z-score
ARRDC5	SID315465104	0.43
ARRDC5	SID315465104	0.29
ARRDC5	SID315465104	-1.27
ARRDC5	SID315465104	0.34
